At least one structure is not confirmed: it was looked up by name or label, or the drawing left a doubt.
Tested on: Human peritoneal mesothelial cells (HPMC)
Test: resazurin cell viability assay on HPMC exposed to PD solutions
Type: cell-based
Protocol: Human peritoneal mesothelial cells (HPMC) were purchased from Zen Bio Inc. and cultured in cell culture flasks using suppliers media. Near confluent HPMC were harvested by trypsinization, seeded into collagen-coated 96-well tissue culture plates (Corning) and allowed to adhere overnight. The medium was changed to twice diluted with dialysis solution for 48 up to 72 hours.
Cell viability was established applying the promega resazurin assay, following the suppliers protocol. Living cells are metabolically active and are able to reduce the non-fluorescent dye resazurin to the strongly-fluorescent dye resorufin. The fluorescence output is proportional to the number of viable cells over a wide concentration range. This also allows the calculation of the proliferation rate for cells capable of consecutive cell division. […] For the dose-response relationship, relative viability was plotted against the test item concentrations.
All assays were conducted in a duplex format using the same cell culture.
Addition of selected BCAs of this invention partially reestablished reszurin to reorufin conversion, which is interpreted as a result of a decreased cytotoxicity, due to the application of the tested BCAs. Compounds were added at 9 dilutions (Cmax=500 μM) together with tested PD solutions or Medium control. Incubation was 48 hours. […]

Structure (SMILES) | type of dialysis solution mainly improved (summary of example 4) | cell viability on Glucose based and on Icodextrin based PD-Solutions (summary of examples 1 to 4)
Oc1cc(O)c2cc(O)c(-c3cc(O)c(O)c(O)c3)[o+]c2c1 [Delphinidin] | mainly improved Icodextrin based dialysis solutions | 
COc1cc(/C=C/c2ccc(O)cc2)cc(OC)c1 [Pterostilbene] |  | increased cell viability

From US11160766B2, “Peritoneal therapeutic fluid” (OPTERION Health AG, priority 2015, dated 2021)
